Results are given in words; binding and its absence hold for the method and conditions named. Tags and fused reporters may be left off the sequences shown.

In the assay the target is T1, SCD1, released from the linker-cleaved SCD1-cyt b5 fusions (mouse) (UniProt P13516).
T1 sequence: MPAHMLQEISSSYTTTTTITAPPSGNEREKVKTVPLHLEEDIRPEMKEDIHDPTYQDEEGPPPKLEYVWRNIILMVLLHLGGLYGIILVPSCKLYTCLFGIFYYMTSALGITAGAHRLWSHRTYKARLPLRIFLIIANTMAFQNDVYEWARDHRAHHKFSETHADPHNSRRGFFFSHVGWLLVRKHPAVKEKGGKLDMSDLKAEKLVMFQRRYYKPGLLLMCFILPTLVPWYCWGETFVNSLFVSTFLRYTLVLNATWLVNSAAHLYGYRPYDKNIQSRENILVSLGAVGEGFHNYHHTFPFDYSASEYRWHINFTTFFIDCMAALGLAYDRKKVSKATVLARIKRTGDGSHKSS
The assay can be described thus: SEC; binary fusion protein purified, linker cleaved by TEV protease, Superdex 200 10/300 GL in 20 mM HEPES pH 7.5, 150 mM NaCl, 1 mM DDM; elution compared with the tethered fusion; both purified. (In gel filtration, larger molecules generally elute earlier.)

“soluble domain of cyt b5, released from the linker-cleaved fusion with SCD1 (mouse) (domain or fragment)”: the binding entry is recorded as “no binding”.

The record behind these values is PMC9468158, “Transmembrane helices mediate the formation of a stable ternary complex of b5R, cyt b5, and SCD1” (Communications Biology, 2022).
